Reference: ChEMBL document CHEMBL3351437, “Ralfuranone Is Produced by an Alternative Aryl-Substituted γ-Lactone Biosynthetic Route in Ralstonia solanacearum” (2014)
Values after ≈ are worked out from the molar mass of the structure shown.

Legend:
Staphylococcus aureus [1] = assay: Antimicrobial activity against Staphylococcus aureus after 18 hrs by microdilution method; assay type: functional
Staphylococcus aureus [2] = assay: Antimicrobial activity against methicillin-resistant Staphylococcus aureus after 18 hrs by microdilution method; assay type: functional

O=C(O)c1cn(C2CC2)c2cc(N3CCNCC3)c(F)cc2c1=O [CIPROFLOXACIN]
MIC (Staphylococcus aureus [1]): 0.4 µg/mL (≈ 1.21 µM) | MIC (Staphylococcus aureus [2]): 12.5 µg/mL (≈ 37.7 µM)
